Measured values from PMC5532393.
No constants are given. Whether binding was seen depends on the method and setting. In cells and extracts the contact can be indirect.

How the values were obtained:
Conditions in all cases: remark: other sources report otherwise
[1] = biological target: T1, E3 ubiquitin ligase Ube3A (mouse (endogenous in cortex and hippocampus)), O08759; test: co-IP; whole cortical lysate of P15 or P60 WT mice; Ube3A or Arc immunoprecipitated, protein A beads; immunoblot
T1 chain: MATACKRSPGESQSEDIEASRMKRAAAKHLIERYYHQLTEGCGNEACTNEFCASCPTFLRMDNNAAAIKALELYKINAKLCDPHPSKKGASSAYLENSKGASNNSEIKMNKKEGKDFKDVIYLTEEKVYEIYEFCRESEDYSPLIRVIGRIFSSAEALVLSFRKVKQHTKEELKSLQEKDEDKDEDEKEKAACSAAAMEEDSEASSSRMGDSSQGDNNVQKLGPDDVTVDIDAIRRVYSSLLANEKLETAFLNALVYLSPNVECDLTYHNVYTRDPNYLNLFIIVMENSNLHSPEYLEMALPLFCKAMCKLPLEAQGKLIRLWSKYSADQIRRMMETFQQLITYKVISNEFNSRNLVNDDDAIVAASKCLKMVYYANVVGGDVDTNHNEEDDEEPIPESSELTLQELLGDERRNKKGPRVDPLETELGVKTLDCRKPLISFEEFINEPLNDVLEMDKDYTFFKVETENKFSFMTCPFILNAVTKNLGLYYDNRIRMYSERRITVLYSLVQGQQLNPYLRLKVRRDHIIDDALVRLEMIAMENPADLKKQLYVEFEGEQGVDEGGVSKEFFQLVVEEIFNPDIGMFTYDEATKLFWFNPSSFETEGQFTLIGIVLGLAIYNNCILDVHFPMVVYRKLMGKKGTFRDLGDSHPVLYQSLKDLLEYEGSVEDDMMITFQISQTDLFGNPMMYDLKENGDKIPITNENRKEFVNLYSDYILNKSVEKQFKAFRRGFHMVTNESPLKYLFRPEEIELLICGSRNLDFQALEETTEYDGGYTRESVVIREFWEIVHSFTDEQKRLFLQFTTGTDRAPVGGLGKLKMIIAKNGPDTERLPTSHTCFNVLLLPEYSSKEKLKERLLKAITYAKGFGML

[2] = biological target: T1, E3 ubiquitin ligase Ube3A (mouse …); test: co-IP; whole cortical lysate of P30 WT mice dark-housed 24 h, then 2 h enriched environment; antibody 1 ug/mL 2 h at 4°C, protein A beads 1 h, three washes; immunoblot
[3] = biological target: T2, Arc (activity-regulated, cytoskeleton-associated gene) (mouse (endogenous in cortex and hippocampus)), Q9WV31; test: co-IP; whole cortical lysate of P15 or P60 WT mice; Ube3A or Arc immunoprecipitated, protein A beads; immunoblot
T2 chain: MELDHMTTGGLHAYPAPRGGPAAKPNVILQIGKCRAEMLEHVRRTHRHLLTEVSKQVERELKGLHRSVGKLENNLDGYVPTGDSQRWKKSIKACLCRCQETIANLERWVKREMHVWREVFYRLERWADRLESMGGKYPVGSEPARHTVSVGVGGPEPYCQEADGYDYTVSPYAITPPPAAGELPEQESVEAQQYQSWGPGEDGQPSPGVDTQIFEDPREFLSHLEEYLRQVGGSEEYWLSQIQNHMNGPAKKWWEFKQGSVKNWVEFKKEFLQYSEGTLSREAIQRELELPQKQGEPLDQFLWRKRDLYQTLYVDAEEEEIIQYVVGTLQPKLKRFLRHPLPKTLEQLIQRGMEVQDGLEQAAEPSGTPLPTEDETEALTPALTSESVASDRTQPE

[4] = biological target: T2, Arc (activity-regulated, …); test: co-IP; nuclear and synaptoneurosome fractions of P30 WT mouse hippocampal lysate; Arc immunoprecipitated; immunoblot
[5] = biological target: T2, Arc (activity-regulated, …); test: co-IP; whole hippocampal lysate of P30 WT mice; Arc immunoprecipitated, protein A beads; immunoblot for Arc and Ube3A
[6] = biological target: T2, Arc (activity-regulated, …); test: co-IP; nuclear and synaptoneurosome fractions of P30 WT mouse cortex, pellets resuspended in immunoprecipitation buffer; Arc immunoprecipitated; immunoblot

Measured: binding

B1: Arc (activity-regulated, cytoskeleton-associated gene), Q9WV31 1-396 (protein)
chain: T2 chain
no binding: [1] | [2]

B2: E3 ubiquitin ligase Ube3A, O08759 1-870 (enzyme)
chain: T1 chain
no binding: [3] | [4] | [5] | [6]
